No constants are given. Whether binding was seen depends on the method and setting. Binding seen in cells or lysates may run through a third protein. Binding can be weak; no strength is given.
These substances were tested against GST-TRα (UniProt P10827) (assay: pull-down; GST or GST-fusion protein on glutathione sepharose 4B beads, incubated with in vitro translated 35S-methionine PRIC295 or its fragments, 4°C, 2 hours, gentle shaker; washed, SDS-PAGE, autoradiography; nuclear receptors without and with receptor-specific ligand (10 μM to 100 μM); only the target purified).

Protein sequences, listed by entry. Tags and fused reporters are not part of them. Lines headed by an entry give the natural chain unless they say otherwise; changes in a name come on top.
UniProt P10827: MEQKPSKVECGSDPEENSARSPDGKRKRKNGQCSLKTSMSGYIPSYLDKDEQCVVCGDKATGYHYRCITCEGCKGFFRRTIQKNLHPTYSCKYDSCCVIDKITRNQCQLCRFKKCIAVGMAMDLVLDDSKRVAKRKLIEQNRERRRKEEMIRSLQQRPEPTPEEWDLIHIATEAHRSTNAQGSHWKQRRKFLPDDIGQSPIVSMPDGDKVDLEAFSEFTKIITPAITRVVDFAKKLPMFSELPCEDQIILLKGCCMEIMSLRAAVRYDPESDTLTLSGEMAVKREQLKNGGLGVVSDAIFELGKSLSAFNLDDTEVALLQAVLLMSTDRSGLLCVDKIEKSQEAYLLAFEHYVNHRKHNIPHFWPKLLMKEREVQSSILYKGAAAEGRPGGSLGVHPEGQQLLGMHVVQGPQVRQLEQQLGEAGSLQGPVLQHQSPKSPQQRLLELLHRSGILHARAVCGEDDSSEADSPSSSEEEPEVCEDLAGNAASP
UniProt Q92616: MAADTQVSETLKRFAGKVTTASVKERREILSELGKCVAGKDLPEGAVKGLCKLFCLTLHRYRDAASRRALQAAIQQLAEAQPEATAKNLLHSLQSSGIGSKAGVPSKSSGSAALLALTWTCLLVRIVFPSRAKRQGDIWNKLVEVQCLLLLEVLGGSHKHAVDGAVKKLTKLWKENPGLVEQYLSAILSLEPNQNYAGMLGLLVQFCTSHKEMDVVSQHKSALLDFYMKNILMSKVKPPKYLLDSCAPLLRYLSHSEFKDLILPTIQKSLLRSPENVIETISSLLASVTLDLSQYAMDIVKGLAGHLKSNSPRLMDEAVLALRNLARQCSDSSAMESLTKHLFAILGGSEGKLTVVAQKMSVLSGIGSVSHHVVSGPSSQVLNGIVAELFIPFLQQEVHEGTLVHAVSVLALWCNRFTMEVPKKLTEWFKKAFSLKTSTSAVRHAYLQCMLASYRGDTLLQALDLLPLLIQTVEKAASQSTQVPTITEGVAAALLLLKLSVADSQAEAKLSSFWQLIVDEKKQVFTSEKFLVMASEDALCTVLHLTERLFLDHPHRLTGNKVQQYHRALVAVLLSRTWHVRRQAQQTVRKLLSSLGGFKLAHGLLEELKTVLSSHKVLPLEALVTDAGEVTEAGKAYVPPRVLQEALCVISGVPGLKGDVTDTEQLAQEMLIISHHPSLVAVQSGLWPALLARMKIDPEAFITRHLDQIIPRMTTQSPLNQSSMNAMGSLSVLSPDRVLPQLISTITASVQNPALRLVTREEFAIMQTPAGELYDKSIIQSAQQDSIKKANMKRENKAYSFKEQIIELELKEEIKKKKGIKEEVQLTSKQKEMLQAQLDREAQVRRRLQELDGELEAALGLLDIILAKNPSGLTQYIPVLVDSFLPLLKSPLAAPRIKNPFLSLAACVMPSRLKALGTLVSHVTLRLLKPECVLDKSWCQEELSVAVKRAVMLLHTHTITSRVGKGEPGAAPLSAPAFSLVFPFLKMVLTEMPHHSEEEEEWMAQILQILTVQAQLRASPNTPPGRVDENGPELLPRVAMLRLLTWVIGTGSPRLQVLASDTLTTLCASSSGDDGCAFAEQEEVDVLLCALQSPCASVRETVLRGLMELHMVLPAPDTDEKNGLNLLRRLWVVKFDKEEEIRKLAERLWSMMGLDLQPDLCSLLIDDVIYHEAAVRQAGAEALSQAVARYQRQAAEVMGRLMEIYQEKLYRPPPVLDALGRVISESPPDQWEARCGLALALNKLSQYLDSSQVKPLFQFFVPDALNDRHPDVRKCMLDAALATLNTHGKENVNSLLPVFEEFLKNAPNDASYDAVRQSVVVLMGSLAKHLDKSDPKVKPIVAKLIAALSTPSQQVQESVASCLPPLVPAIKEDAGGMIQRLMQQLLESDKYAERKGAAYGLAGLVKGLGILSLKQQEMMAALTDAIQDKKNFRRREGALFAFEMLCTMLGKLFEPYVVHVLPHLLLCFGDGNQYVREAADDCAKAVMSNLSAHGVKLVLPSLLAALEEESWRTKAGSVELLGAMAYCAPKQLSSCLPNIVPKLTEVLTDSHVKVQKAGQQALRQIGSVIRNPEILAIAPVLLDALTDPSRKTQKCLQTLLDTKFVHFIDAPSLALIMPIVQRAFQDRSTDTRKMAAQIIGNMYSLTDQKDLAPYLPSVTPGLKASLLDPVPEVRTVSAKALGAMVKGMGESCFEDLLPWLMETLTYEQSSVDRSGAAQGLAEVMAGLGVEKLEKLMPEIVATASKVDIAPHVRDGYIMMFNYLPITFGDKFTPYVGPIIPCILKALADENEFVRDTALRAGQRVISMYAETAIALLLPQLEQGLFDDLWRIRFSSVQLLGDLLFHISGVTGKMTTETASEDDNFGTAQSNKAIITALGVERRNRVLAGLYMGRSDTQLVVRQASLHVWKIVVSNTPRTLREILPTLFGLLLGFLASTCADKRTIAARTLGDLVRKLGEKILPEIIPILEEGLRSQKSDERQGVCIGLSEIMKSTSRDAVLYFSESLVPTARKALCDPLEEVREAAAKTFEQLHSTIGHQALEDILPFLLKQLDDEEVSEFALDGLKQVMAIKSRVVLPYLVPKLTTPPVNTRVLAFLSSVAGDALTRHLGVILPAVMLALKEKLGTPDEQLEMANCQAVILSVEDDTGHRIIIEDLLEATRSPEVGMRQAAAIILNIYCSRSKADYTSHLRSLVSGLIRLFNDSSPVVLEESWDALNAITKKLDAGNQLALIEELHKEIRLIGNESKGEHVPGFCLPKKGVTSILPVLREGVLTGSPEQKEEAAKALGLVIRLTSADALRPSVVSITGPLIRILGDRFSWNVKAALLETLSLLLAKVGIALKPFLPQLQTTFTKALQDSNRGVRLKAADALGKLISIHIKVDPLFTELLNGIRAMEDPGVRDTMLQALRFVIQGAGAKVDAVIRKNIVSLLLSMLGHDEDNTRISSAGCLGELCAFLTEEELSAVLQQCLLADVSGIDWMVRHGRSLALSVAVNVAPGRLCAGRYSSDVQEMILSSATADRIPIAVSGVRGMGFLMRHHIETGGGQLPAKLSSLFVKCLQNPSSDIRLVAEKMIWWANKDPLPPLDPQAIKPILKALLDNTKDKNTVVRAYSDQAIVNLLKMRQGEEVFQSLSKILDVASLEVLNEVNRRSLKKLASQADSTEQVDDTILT

| binding | Substance |
| --- | --- |
| binds | ΔPRIC295^1–915 (F1), in vitro translated (from UniProt Q92616 1-915) (domain or fragment) |
| binds | ΔPRIC295^840–1815 (F2), in vitro translated (from UniProt Q92616 840-1815) (domain or fragment) |
| binds | PRIC295 (PPARα-interacting cofactor 295), full-length, in vitro translated (from UniProt Q92616 1-2671) |

— PMC2946606
